From PMC5039214
No constants are given. Whether binding was seen depends on the method and setting.

Target: Skint-1 DV (membrane distal immunoglobulin (Ig) domain of Skint-1), residues S24 to T141 (mouse) (UniProt A7TZE6)
Test: SEC; Superdex-200 (GE Healthcare) pre-equilibrated with 50 mM NaCl, 20 mM MES pH 6.5; refolded protein, elution profile; both purified

B1: Skint-1 DV (membrane distal immunoglobulin (Ig) domain of Skint-1), residues S24 to T141 (domain or fragment, UniProt A7TZE6 24-141)
chain: SSEPFIVNGLEGPVLASLGGNLELSCQLSPPQQAQHMEIRWFRNLYTEPVHLYRDGKDMFGEIISKYVERTELLKDGIGEGKVTLRIFNVTVDDDGSYHCVFKDGDFYEEHITEVKIT
binding: no binding
